System: MYC2-GST + GAME9-HIS
Assay: pull-down
Conditions: GAME9 pulled down only in the presence of MYC2; pull-down: 10 mM HEPES pH 7.9, 100 mM KCl, 5 mM MgCl2, 10% glycerol, 1 mM DTT, 0.5% NP-40, 4 C overnight; recombinant protein; protein details: GST (pGEX-4T-1),His (pET28a); label: 5'-biotin; probe letters rebuilt from the primers and the genome

## ACAGCTACATTATATTTTTGTATATTGCTAAATGACGAAAAAATTTAATCAGATTAGAAAATGAAAAAATTATAATATTTATTTTATCTTAAAATAAATTAATCTTTTTTCTATTTTTAATTAAAAAGATAAAAATATTTAAAATAATAAAATAATAGAGTAAAATATCATTCTAAAATAGTATAAATAAAATATTATTCCGACCCAATTCTTATTAAATTTTCTAGTTATAAAGATTTTTCATATCTATAGCACCTCACAATAATTTAAACGAATTTTGCACACGTTTATTTATGTTGGACAGCTATATTTTCAAAAAATAAAGCTACATTATCTTTTTTTCTATTGTTTCTGAGGACCAAATGATTATTTATTTTATTAAAGAAAATCCAAAAAGATAGATGTATATAGTACAATAAAGCCGAGAAGAAATAATCTTTATCAGATGGAGACAGGGCATATCTAGGAGGTTTATTACCACTAATGGATCAAAATAAATAATTGTCGAAT (double strand) [GE1-3]
  binding result: binds

Source: publication PMC10991328, “A distal enhancer guides the negative selection of toxic glycoalkaloids during tomato domestication”
